Laboratory results from PubChem BioAssay AID1487 (National Center for Advancing Translational Sciences (NCATS), 2009).
The list shows a part of the results. Shown are side measurements of this screen, not its main read-out; they come without a call. Compounds called inactive in the main read-out are mostly missing here. Potencies come from curve fits of mixed quality, noted in brackets.

Experiment: qHTS Assay for Modulators of Lamin A Splicing
Settings: HeLa LMNA splicing GFP/RFP minigene ratio, 48 h
Summary of the method: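 S3 HeLa stable clones carrying a lamin A-EGFP splicing minigene plus DsRed2 were seeded at 600 cells/well in Opti-MEM with 2% FBS, pin-dosed and incubated 48 h at 37°C. Acumen cytometry (488 nm) gave the GFP/RFP total-intensity ratio.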

[1] = measured here: GFP splicing reporter channel
[2] = measured here: RFP viability control channel

SMILES | AC50 [1] | AC50 [2]
COc1cc2cc(CN(Cc3cccs3)C(=S)Nc3ccc(C)cc3)c(=O)[nH]c2cc1OC | 3.98 µM [rising, partial curve, poor fit] | 3.98 µM [rising, partial curve]
N#CC1=C(N)Oc2ccc3ccc(O)cc3c2C1c1cccnc1 (stereo not drawn) | – | 5.62 µM [rising, partial curve]
Cc1ccc(-c2nc(C3CCCN(S(=O)(=O)c4ccc(C)cc4)C3)no2)cc1 (stereo not drawn) | – | 12.6 µM [rising, single point]
Cc1ccc(Nc2ncccc2C(=O)O)cc1C | 2 µM [rising, partial curve] | 10 µM [rising, partial curve]
COc1cc(OC)c(C(=O)OC(C)C(=O)Nc2cccc(C(F)(F)F)c2)cc1OC (stereo not drawn) | 10 µM [rising, single point] | 14.1 µM [rising, single point]
CCCOc1ccc(NC(=O)CC2C(=O)N(C)C(=S)N2Cc2ccc3c(c2)OCO3)cc1 (stereo not drawn) | – | 35.5 µM [rising, single point]
CCc1ccccc1NC(=O)C1=C(C)C(=O)OC12CCCCCC2 | 35.5 µM [rising, single point] | –
CC(O)C(NS(=O)(=O)c1ccc(Cl)cc1)C(=O)OCC(=O)c1c[nH]c2ccccc12 (stereo not drawn) | 10 µM [falling, single point] | 17.8 µM [falling, partial curve, poor fit]
CNc1ccc(Br)cc(C(=O)/C=C/c2ccc(Cl)cc2Cl)c1=O | 14.1 µM [falling, single point] | –
CCOC(=O)N/N=C/c1cn(Cc2ccccc2Cl)c2ccccc12 | 3.55 µM [rising, full curve] | 11.2 µM [rising, partial curve]
COC(=O)c1ccccc1NC(=O)N1CCc2c(sc3c2CCCC3)C1c1ccc(F)cc1 (stereo not drawn) | – | 1.26 µM [rising, partial curve]
O=C(COc1ccccc1)NC1CC(=O)N(c2ccc3c(c2)OCCO3)C1 (stereo not drawn) | – | 0.00316 µM [falling, full curve, poor fit]
Cc1cc(C)c(C)c(S(=O)(=O)NCCCN2CCOCC2)c1C | 0.282 µM [rising, full curve, poor fit] | –
C=CCN=c1scc(-c2ccc3c(c2)NC(=O)CO3)n1/N=C(\C)c1ccccn1 | – | 5.62 µM [rising, partial curve]
CCOc1cccc2c1OC(c1cc(OC)c(OC)c(OC)c1)N1N=C(c3ccc(C)o3)CC21 (stereo not drawn) | – | 12.6 µM [rising, single point]
COC(=O)CSC1=C(C#N)C(c2ccccc2OC)C(C(=O)OC)C(=O)N1 (stereo not drawn) | – | 0.0282 µM [falling, full curve, poor fit]
COc1ccc(C(=O)C2CCCN(C(=O)c3cccnc3SC)C2)c(C)c1 (stereo not drawn) | 35.5 µM [falling, single point] | 35.5 µM [falling, single point]
CCOC(=O)c1sc(NC(=O)CSc2nnc(C(C)C)n2CC)nc1C | 12.6 µM [rising, single point] | –
O=C(c1ccc(Cl)cc1)C1CCCN(Cc2cccn2-c2ccccn2)C1 (stereo not drawn) | 1 µM [falling, full curve] | –

SMILES | AC50 [1] | AC50 [2]
O=C(CCCCCCCC(=O)c1ccccc1)c1ccccc1 | 22.4 µM [falling, single point] | 0.0398 µM [falling, full curve, poor fit]
COc1cc(S(=O)(=O)N2CCN(Cc3ccc4c(c3)OCO4)CC2)c(C)cc1C | 35.5 µM [rising, single point] | 35.5 µM [rising, single point]
CCCn1c(SCC(=O)N2N=C3/C(=C/c4ccc(OC)cc4)CCCC3C2c2ccc(OC)cc2)n[nH]c1=O (stereo not drawn) | 14.1 µM [rising, single point] | 15.8 µM [rising, partial curve]
Cc1nc(NC(=O)CSc2nnc(N)s2)c(Cl)cc1Cl | – | 0.562 µM [rising, partial curve, poor fit]
CCOC(=O)C1=C(CSc2nncn2C)NC(=O)NC1c1cc(OCC)ccc1OCC (stereo not drawn) | 0.0794 µM [rising, full curve, poor fit] | –
Cc1ccc(-n2nnnc2SC(C)C(=O)Nc2ccc(Cl)cn2)cc1 (stereo not drawn) | 20 µM [rising, single point] | –
CCc1ccc(OCC(=O)N/N=C(\C)c2ccc(O)cc2O)cc1 | – | 25.1 µM [rising, partial curve]
COc1ccc(-c2cnnn2-c2ccc(NC(=O)c3ccc(S(=O)(=O)N4CCCCC4)cc3)cc2)cc1 | – | 10 µM [rising, partial curve]
COC(=O)c1ccc(-c2nc3ccccc3[nH]2)cc1 | – | 0.00447 µM [falling, full curve, poor fit]
Cn1c(SCC(=O)c2c(N)n(C)c(=O)n(C)c2=O)nnc1-c1ccc(F)cc1 | – | 0.112 µM [rising, full curve, poor fit]
COc1ccc(/C=C2/C(=O)ON=C2c2ccccc2)cc1OC | 7.94 µM [falling, single point] | 12.6 µM [falling, single point]
CC(=O)c1cccc(NC(=S)NC(=O)c2cccc(C)c2)c1 | 11.2 µM [rising, partial curve] | 28.2 µM [rising, partial curve]
Cc1cc(S(=O)(=O)C(CNC(=O)COc2ccc(Cl)cc2)c2cccs2)ccc1F (stereo not drawn) | – | 35.5 µM [rising, single point]
COc1ccc(OC)c(CCNC(=O)C2CCN(c3nnc(-n4cccc4)s3)CC2)c1 | – | 7.94 µM [rising, partial curve]
CC1C(c2ccccc2)N(C)C(c2ccccc2)CC1(O)c1ccccc1 (stereo not drawn) | – | 2.82 µM [falling, partial curve, poor fit]
CSc1nc2nc3c(cc2c(=O)[nH]1)C(O)Oc1ccc(C)cc1-3 (stereo not drawn) | 10 µM [rising, single point] | –
Cc1ccccc1N=C/C=C1/C=C(c2ccccc2)OC(C)(C)O1 | – | 14.1 µM [rising, single point]
CCOC(=O)C1=CN(C)C=C(C(=O)OCC)C1c1ccsc1 | 31.6 µM [rising, single point] | –
O=C(NC(c1ccccc1)C(Cl)(Cl)Cl)c1ccccc1 (stereo not drawn) | 17.8 µM [rising, partial curve, poor fit] | 20 µM [rising, single point]

SMILES | AC50 [1] | AC50 [2]
O=C(CNc1ccccc1)N/N=C/c1ccc([N+](=O)[O-])o1 | – | 35.5 µM [falling, single point]
Fc1ccc(CNc2nc(-c3ccccc3)nc3ccccc23)cc1 | 15.8 µM [falling, single point] | 22.4 µM [falling, single point]
O=C(COC(=O)C1CC1)NC(=O)NCc1ccccc1 | – | 5.01 µM [rising, full curve, poor fit]
CC(C)(C)OC(=O)N1CCC(c2c(C(=O)NCCN3CCC(Cc4ccccc4)CC3)cnn2-c2ccc(F)cc2)CC1 | 22.4 µM [falling, partial curve] | 31.6 µM [falling, partial curve]
Cc1cccc(N2CCN(S(=O)(=O)c3cc(C(=O)Nc4ccccc4Cl)ccc3F)CC2)c1C | – | 0.158 µM [rising, full curve, poor fit]
CCc1c(C)nc2cc(-c3ccc(OC)c(OC)c3)nn2c1NCC1CC1 | – | 14.1 µM [rising, single point]
O=C(CSc1nc(C2CC2)nc2ccccc12)N1CCc2ccccc2C1 | 8.91 µM [rising, partial curve] | 12.6 µM [rising, partial curve]
CNS(=O)(=O)c1ccc(NS(=O)(=O)c2ccccc2F)cc1 | 0.112 µM [rising, full curve, poor fit] | –
COc1ccc(C2=NN(C(=O)CSc3ncccn3)C(c3ccc(C)cc3)C2)cc1 (stereo not drawn) | – | 15.8 µM [rising, single point]
COc1cccc(Nc2nnc(SCc3cc([N+](=O)[O-])cc4c3OCOC4)s2)c1 | – | 7.08 µM [rising, partial curve]
COCCCNC(=O)c1ccc(NC(=O)c2nsc3ccccc23)cc1 | 0.316 µM [rising, single point] | –
CC1CCN(C(=S)c2ccc(-c3ccc(Cl)cc3Cl)o2)CC1 | – | 10 µM [rising, partial curve]
CS(=O)(=O)c1ccc(-c2nnc(NC(=O)c3ccc4c(c3)OCCO4)o2)cc1 | 35.5 µM [falling, single point] | 14.1 µM [falling, partial curve, poor fit]
CCOC(=O)CSC1=C(C#N)C(c2ccc(C)o2)CC(=O)N1 (stereo not drawn) | – | 0.794 µM [rising, full curve]
Oc1ccc(NC(=S)Nc2ccccc2)cc1 | – | 22.4 µM [rising, single point]
C/C(=N\NC(=O)c1ccc(CN2CCOCC2)cc1)c1cccc([N+](=O)[O-])c1 | – | 1.12 µM [rising, partial curve, poor fit]
CCOC(=O)CNC(=O)c1cc(-c2ccccn2)nc2c(C)c(Cl)ccc12 | – | 0.01 µM [rising, full curve, poor fit]
CCC1CN(C(=O)N2CCC(C(=O)NCCN(CC)CC)CC2)c2cc(C)ccc2O1 (stereo not drawn) | – | 8.91 µM [rising, partial curve]
CCOc1cc(CNC(=O)c2sc3ncnc(N(C)C4CCCCC4)c3c2C)ccc1OC | 35.5 µM [falling, single point] | –

Given in markdown: ten of the compounds above

| SMILES | AC50 [1] | AC50 [2] |
| --- | --- | --- |
| CC(C)(C)OC(=O)N1CCC(c2c(C(=O)NCCN3CCC(Cc4ccccc4)CC3)cnn2-c2ccc(F)cc2)CC1 | 22.4 µM [falling, partial curve] | 31.6 µM [falling, partial curve] |
| Cc1cccc(N2CCN(S(=O)(=O)c3cc(C(=O)Nc4ccccc4Cl)ccc3F)CC2)c1C | – | 0.158 µM [rising, full curve, poor fit] |
| CCc1c(C)nc2cc(-c3ccc(OC)c(OC)c3)nn2c1NCC1CC1 | – | 14.1 µM [rising, single point] |
| O=C(CSc1nc(C2CC2)nc2ccccc12)N1CCc2ccccc2C1 | 8.91 µM [rising, partial curve] | 12.6 µM [rising, partial curve] |
| CNS(=O)(=O)c1ccc(NS(=O)(=O)c2ccccc2F)cc1 | 0.112 µM [rising, full curve, poor fit] | – |
| COc1ccc(C2=NN(C(=O)CSc3ncccn3)C(c3ccc(C)cc3)C2)cc1 (stereo not drawn) | – | 15.8 µM [rising, single point] |
| COc1cccc(Nc2nnc(SCc3cc([N+](=O)[O-])cc4c3OCOC4)s2)c1 | – | 7.08 µM [rising, partial curve] |
| COCCCNC(=O)c1ccc(NC(=O)c2nsc3ccccc23)cc1 | 0.316 µM [rising, single point] | – |
| CC1CCN(C(=S)c2ccc(-c3ccc(Cl)cc3Cl)o2)CC1 | – | 10 µM [rising, partial curve] |
| CS(=O)(=O)c1ccc(-c2nnc(NC(=O)c3ccc4c(c3)OCCO4)o2)cc1 | 35.5 µM [falling, single point] | 14.1 µM [falling, partial curve, poor fit] |
